# Test results: PubChem BioAssay (EPA / NIEHS)
# The chains behind the UniProt entries cited, without tags or fusion partners. Where a name states a change or a piece, a line headed by the entry shows the natural chain unless it says otherwise.
# UniProt P04150: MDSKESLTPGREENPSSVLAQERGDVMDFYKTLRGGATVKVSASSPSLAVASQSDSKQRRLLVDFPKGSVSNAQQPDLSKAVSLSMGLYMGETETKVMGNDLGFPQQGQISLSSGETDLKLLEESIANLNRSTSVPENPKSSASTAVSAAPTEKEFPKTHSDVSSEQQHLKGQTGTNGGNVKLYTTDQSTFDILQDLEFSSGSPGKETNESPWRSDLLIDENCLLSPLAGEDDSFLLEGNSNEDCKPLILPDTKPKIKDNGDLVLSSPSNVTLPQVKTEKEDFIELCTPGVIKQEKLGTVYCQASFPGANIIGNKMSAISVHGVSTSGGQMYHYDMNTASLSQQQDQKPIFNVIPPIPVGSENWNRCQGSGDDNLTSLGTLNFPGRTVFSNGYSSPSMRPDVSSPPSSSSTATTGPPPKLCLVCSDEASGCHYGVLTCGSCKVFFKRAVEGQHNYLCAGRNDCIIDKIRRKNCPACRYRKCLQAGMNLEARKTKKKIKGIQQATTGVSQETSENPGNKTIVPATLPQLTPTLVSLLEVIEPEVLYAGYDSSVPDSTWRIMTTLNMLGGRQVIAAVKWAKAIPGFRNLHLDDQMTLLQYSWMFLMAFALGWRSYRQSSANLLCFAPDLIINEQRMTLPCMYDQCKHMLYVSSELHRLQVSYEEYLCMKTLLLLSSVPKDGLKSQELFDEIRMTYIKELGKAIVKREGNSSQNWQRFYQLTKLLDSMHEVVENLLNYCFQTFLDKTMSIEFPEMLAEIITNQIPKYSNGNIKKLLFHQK
# UniProt O75469: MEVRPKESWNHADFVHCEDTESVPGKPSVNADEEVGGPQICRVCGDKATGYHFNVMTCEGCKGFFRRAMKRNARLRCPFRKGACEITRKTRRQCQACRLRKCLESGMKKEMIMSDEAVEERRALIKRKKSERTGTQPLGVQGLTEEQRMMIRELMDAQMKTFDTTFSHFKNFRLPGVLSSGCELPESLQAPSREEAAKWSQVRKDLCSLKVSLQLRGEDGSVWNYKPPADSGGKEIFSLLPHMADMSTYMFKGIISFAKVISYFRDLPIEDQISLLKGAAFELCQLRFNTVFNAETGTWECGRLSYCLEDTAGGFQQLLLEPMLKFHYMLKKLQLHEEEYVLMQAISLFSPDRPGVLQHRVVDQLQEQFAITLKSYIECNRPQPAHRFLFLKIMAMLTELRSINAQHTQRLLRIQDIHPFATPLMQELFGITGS
# UniProt Q96RI1: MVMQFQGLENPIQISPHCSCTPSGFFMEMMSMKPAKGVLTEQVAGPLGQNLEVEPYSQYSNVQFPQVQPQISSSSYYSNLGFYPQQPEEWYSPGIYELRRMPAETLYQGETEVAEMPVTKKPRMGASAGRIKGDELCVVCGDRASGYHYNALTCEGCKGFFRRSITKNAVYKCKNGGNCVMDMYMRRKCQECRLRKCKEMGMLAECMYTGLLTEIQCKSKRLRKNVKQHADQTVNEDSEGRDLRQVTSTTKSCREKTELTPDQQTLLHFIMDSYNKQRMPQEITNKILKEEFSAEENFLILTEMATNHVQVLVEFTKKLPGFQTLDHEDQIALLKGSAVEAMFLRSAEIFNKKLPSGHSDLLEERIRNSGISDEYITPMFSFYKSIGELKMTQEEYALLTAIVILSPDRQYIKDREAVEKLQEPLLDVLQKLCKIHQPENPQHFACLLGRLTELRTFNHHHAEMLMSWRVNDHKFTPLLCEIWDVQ
# UniProt P10827: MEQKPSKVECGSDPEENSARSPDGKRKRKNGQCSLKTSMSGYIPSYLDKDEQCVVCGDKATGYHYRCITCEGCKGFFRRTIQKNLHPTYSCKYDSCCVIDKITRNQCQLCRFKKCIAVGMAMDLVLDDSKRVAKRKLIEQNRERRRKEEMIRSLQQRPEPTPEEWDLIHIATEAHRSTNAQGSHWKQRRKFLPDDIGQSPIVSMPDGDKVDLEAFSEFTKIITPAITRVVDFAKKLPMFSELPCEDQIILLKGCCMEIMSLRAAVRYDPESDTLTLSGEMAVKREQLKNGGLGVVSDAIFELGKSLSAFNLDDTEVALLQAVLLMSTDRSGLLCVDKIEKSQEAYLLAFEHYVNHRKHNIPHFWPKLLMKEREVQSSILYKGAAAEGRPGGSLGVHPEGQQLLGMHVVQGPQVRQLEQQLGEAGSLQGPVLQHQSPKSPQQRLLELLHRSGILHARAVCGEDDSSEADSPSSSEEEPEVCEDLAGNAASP
# UniProt P37231: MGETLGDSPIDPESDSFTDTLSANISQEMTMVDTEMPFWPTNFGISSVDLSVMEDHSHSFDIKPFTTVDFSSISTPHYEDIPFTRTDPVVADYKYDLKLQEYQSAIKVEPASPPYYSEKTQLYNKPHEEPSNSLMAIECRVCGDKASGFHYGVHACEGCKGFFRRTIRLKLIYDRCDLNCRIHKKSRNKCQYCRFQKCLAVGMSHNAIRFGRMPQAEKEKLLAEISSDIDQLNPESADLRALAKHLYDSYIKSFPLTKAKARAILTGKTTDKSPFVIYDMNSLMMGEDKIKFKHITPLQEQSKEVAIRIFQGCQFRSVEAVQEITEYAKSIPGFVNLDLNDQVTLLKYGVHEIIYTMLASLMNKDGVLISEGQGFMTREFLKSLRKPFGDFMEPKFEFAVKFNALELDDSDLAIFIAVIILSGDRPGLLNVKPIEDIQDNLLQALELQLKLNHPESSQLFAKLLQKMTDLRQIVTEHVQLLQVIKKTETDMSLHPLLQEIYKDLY
# UniProt P19785, whole entry, looked up: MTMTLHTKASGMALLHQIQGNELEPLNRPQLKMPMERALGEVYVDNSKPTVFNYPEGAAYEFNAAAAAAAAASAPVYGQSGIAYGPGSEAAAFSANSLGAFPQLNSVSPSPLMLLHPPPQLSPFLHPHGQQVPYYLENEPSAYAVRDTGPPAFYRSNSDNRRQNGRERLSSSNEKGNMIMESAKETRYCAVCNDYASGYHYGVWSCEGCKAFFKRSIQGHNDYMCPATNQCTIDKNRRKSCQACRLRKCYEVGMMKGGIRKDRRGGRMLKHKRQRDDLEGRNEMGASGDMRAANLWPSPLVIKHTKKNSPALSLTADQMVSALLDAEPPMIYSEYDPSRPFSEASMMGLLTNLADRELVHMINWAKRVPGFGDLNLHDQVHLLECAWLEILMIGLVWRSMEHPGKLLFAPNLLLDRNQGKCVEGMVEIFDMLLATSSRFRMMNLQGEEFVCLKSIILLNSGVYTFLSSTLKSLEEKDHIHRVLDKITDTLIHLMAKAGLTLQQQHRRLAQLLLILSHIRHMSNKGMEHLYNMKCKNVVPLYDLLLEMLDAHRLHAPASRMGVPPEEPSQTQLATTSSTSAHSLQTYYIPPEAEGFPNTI
# UniProt P10275: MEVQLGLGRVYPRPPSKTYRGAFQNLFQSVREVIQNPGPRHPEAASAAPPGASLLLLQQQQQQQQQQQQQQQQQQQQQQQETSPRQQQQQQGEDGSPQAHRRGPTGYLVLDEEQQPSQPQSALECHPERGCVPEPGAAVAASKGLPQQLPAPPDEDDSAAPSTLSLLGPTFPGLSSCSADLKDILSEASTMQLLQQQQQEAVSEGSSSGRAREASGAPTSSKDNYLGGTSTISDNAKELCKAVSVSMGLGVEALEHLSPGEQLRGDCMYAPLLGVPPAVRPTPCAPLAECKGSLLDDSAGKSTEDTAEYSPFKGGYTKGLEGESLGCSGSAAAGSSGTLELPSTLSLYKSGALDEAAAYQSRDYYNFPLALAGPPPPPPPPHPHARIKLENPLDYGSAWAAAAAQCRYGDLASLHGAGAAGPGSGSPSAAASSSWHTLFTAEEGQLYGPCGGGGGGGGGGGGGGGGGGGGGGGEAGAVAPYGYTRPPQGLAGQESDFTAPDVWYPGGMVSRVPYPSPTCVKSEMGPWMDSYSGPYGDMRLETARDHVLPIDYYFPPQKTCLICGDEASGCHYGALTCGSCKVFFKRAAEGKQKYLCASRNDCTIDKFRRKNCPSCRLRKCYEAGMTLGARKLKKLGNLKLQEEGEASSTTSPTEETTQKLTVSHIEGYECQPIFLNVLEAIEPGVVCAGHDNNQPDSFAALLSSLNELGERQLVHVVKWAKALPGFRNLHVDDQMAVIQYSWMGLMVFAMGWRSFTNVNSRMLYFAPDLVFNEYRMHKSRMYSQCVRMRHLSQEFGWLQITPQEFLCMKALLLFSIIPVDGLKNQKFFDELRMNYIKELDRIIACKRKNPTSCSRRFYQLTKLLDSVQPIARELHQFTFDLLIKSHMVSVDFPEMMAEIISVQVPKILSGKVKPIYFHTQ
# UniProt P15207: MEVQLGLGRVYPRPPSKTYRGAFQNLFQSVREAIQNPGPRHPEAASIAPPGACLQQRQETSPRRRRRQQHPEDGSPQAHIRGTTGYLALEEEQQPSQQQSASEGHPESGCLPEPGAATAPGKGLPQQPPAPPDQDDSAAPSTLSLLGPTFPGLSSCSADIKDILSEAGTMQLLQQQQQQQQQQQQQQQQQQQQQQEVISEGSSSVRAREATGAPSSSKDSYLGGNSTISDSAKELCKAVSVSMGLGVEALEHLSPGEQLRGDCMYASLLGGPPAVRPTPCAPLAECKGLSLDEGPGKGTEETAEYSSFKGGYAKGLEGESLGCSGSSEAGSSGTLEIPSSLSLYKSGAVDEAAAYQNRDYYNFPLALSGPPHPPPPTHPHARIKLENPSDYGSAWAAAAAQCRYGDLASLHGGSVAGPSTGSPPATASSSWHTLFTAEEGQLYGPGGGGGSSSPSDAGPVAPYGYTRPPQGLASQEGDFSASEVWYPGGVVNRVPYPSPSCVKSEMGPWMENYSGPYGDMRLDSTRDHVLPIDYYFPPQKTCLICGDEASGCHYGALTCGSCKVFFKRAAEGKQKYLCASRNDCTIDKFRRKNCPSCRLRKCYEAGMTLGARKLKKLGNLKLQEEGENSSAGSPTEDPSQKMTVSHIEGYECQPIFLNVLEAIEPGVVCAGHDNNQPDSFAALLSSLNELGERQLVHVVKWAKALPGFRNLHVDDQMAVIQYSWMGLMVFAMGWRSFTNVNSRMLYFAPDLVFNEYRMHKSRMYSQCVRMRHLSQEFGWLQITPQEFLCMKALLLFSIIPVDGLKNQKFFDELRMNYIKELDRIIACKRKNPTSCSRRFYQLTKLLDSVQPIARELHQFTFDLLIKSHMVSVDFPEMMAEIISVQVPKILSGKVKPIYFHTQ
# UniProt P23975, whole entry, looked up: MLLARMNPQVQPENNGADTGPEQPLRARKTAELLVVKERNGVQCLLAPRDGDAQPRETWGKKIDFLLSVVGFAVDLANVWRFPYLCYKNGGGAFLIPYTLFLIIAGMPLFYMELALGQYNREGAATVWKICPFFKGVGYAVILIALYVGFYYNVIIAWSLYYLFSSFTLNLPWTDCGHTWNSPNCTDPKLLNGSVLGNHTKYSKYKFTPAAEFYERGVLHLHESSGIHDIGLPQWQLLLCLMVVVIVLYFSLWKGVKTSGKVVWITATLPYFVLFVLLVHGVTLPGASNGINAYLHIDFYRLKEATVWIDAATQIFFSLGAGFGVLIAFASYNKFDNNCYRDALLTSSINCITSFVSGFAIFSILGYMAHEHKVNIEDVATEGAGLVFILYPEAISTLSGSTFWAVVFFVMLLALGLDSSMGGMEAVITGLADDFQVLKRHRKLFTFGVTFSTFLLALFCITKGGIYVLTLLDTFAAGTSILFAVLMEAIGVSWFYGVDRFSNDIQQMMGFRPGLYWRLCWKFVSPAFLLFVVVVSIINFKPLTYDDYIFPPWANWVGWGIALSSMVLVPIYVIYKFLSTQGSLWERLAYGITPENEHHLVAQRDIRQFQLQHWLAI
# “And” between values parts separate entries of the source, which are not always exact repeats. Identical values can stand only once. This list was built around the results that the source calls inconclusive (neither active nor inactive); the mix of calls is not that of the screen. For some assays here: Where the call is inconclusive, the potency comes from a doubtful curve fit. Some structures have more than one record in an assay (separate samples or runs), and their calls can disagree. The source made the active and inactive calls. The calls were made as follows: active = hit-call score of the fitted dose curve at least 0.9, where 1 is the maximum; inconclusive = response in the unintended direction; inactive = score below 0.9.
# Legend:
# [1] = molecular target: Glucocorticoid receptor (Homo sapiens) (UniProt P04150); test: NVS_NR_hGR: NovaScreen (NVS) Nuclear Receptor Binding Assay for human Glucocorticoid Receptor (GR) (AID 2283363);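 as to AC50: activity is loss of specific radioligand binding signal relative to DMSO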
# Method in brief: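 Filter scintillation readout of tritiated/iodinated radioligand displaced by test chemical; cell-free extracted protein; 16 h. DMSO = negative control/baseline. Duplicate single-point 25 uM screen, then concentration-response on actives.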
# [2] = molecular target: Nuclear receptor subfamily 1 group I member 2 (Homo sapiens) (UniProt O75469); test: NVS_NR_hPXR: NovaScreen (NVS) Nuclear Receptor Binding Assay for human Pregnane X Receptor (PXR) (AID 2283365);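 also: a drop in FRET signal versus DMSO baseline means the compound binds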
# Method in brief: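 Cell-free TR-FRET binding assay with extracted human PXR protein, read 2 h after dosing. Primary screen run in duplicate at 25 uM, actives followed in concentration series; loss of signal fitted against DMSO baseline.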
# [3] = molecular target: Bile acid receptor (Homo sapiens) (UniProt Q96RI1); test: OT_FXR_FXRSRC1_1440: Odyssey Thera (OT) 24-hour HEK293T Protein-Complementation Assay for Farnesoid X receptor/SRC-1 Co-activator (AID 2283384)
# Method in brief: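 Single endpoint, analysed for increased fluorescence against DMSO controls. HEK293T cells carrying FXR and SRC-1 linked to complementary reporter halves were exposed to chemicals for 24 h before reading.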
# [4] = molecular target: human Thyroid Receptor Alpha (TRa), THRA (gene 7067) (UniProt P10827); test: NVS_NR_hTRa_Antagonist: NovaScreen (NVS) Nuclear Receptor Binding Assay for human Thyroid Receptor Alpha Antagonism (TRa) (AID 2283362);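 also: activity is loss of signal relative to DMSO baseline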
# Method in brief: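 Cell-free AlphaLISA chemiluminescent binding read 1 h after dosing, antagonist mode; signal loss versus DMSO baseline. Primary screen in duplicate at 25 uM, then concentration series for actives.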
# [5] = molecular target: Bile acid receptor (Homo sapiens) (UniProt Q96RI1); test: OT_FXR_FXRSRC1_0480: Odyssey Thera (OT) 8-hour HEK293T Protein-Complementation Assay for Farnesoid X receptor/SRC-1 Co-activator (AID 2283383)
# Method in brief: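 Readings were taken 8 h after dosing HEK293T cells in a split-reporter complementation format pairing FXR with SRC-1. Increased fluorescence relative to DMSO-treated wells defined activity.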
# [6] = molecular target: Peroxisome proliferator-activated receptor gamma (Homo sapiens) (UniProt P37231); test: NVS_NR_hPPARg: NovaScreen (NVS) Nuclear Receptor Binding Assay for human Peroxisome Proliferator-activated Receptor gamma (PPARg) (AID 2283370)
# Method in brief: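 Cell-free fluorescence polarization binding to human PPARg protein, read 2 h after dosing. Primary screen in duplicate at 25 uM, actives followed in concentration series; loss of signal relative to DMSO scored.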
# [7] = molecular target: mouse Estrogen Receptor alpha (Era), Esr1 (gene 13982) (UniProt P19785); test: NVS_NR_mERa: NovaScreen (NVS) Nuclear Receptor Binding Assay for mouse Estrogen Receptor alpha (Era) (AID 2283378);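 also: hit means loss of bound radioligand signal relative to DMSO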
# Method in brief: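 Cell-free radioligand competitive displacement binding, read by filter-based scintillation counting 18 h after dosing. Primary screen run in duplicate at 25 uM, actives retested in concentration series; loss of signal versus DMSO.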
# [8] = molecular target: Agonist Androgen Response Element (ARE), AR (gene 367) (UniProt P10275); test: OT_AR_ARELUC_AG_1440: Odyssey Thera (OT) 24-hour CHO-K1 Luciferase Assay for Agonist Androgen Response Element (ARE) (AID 2283379)
# Method in brief: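 Gain-of-signal reporter endpoint: cells (CHO-K1, hamster) are treated 24 h, luciferin/ATP reagent added, and luminescence compared with DMSO baseline.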
# [9] = molecular target: rat Androgen Receptor (AR), Ar (gene 24208) (UniProt P15207); test: NVS_NR_rAR: NovaScreen (NVS) Nuclear Receptor Binding Assay for rat Androgen Receptor (AR) (AID 2283366)
# Method in brief: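 Actives from a duplicate single-concentration (25 uM) primary run went on to concentration series. Displacement of radioligand was counted by filtration and scintillation, 18 h post-dose, using prostate extracts from testosterone-pretreated rats, with DMSO as baseline.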
# [10] = system: rat Norepinephrine Transporter (NET), gene 83511; test: NVS_TR_rNET: NovaScreen (NVS) Transporter Assay for rat Norepinephrine Transporter (NET) (AID 2283373)
# Method in brief: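 Competitive radioligand displacement at the rat NET using forebrain membrane preparations, 1 h incubation, filter-based scintillation readout. Primary testing in duplicate at a single 25 uM concentration; confirmed actives retested across concentrations.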
# [11] = molecular target: human Norepinephrine Transporter (NET), SLC6A2 (gene 6530) (UniProt P23975); test: NVS_TR_hNET: NovaScreen (NVS) Transporter Assay for human Norepinephrine Transporter (NET) (AID 2283377);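 also: cell-free membrane protein extracted from CHO cells expressing human NET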
# Method in brief: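 CHO cell extracts expressing the transporter; tritiated or iodinated tracer displaced competitively; filtration plus scintillation readout at 1 h. Single-point duplicates at 25 uM, concentration series for follow-up; activity = signal drop relative to DMSO.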
compound,measurement,setting,value
CCCCCCOC(=O)c1ccccc1,AC50,[1],inconclusive: 25 µM
same,AC50,[2],inconclusive: 0.218 µM
same,AC50,[3],inconclusive: 16.2 µM
O=c1cc(-c2ccc(O)cc2)oc2cc(O)cc(O)c12,AC50,[2],inconclusive: 25 µM
O=C(O)CS,AC50,[2],inconclusive: 25 µM
CC(C)C(=O)c1ccccc1,outcome,[2],inactive
C=CC(=O)NC(C)(C)CS(=O)(=O)O,AC50,[2],inconclusive: 25 µM
COCCO,AC50,[2],active: 3.84 µM
CCCCCCCCOC(=O)c1ccc(O)cc1,outcome,[1],inactive
CC(C)N(c1ccccc1)C(C)C,AC50,[2],inconclusive: 0.502 µM
CCCCCCCCCCCCS,outcome,[2],inactive
CCN(CCC#N)c1ccc(N=Nc2c(Cl)cc([N+](=O)[O-])cc2Cl)cc1,AC50,[2],active: 0.433 µM
O=C(O)c1cccc(C(=O)O)n1,AC50,[4],active: 28.1 µM
same,AC50,[5],inconclusive: 50 µM
COc1ccc2sc(C(=O)Nc3nnn[nH]3)c(OC(C)C)c2c1,outcome,[1],inactive
same,AC50,[5],inconclusive: 28.4 µM
same,AC50,[3],inconclusive: 50 µM
CCCCCCCCCCCCCC[N+](C)(C)C,AC50,[4],inconclusive: 4.39 µM
same,AC50,[5],inconclusive: 15.9 µM
ClC1=C(Cl)C(Cl)(Cl)C(Cl)=C1Cl,AC50,[2],active: 40.8 µM
same,AC50,[6],inconclusive: 1.66 µM
OCC(O)c1ccccc1 (stereo not given),AC50,[2],inconclusive: 25 µM
NC(=O)c1nc(-c2cccc(-c3cc(F)ccc3OCC(F)(F)C(F)(F)F)c2)n[nH]1,outcome,[2],inactive
same,AC50,[6],inconclusive: 0.294 µM
same,AC50,[7],inconclusive: 43.6 µM
same,AC50,[8],inconclusive: 50 µM
CCCCCCCCCCCCCCCCOS(=O)(=O)O,AC50,[2],active: 12.5 µM
same,AC50,[9],active: 3.03 µM
same,AC50,[6],active: 1.64 µM
same,AC50,[7],active: 7.04 µM
same,AC50,[3],inconclusive: 8.42 µM
C[C@]12CC[C@@H]3c4ccc(O)cc4C[C@@H](CCCCCCCCCS(=O)CCCC(F)(F)C(F)(F)F)[C@H]3[C@@H]1CC[C@@H]2O (stereo not given in full),AC50,[2],inconclusive: 0.112 µM
same,AC50,[9],inconclusive: 24.7 µM
same,outcome,[9],inactive
same,AC50,[7],active: 3.4 µM and active: 2.01 µM
same,outcome,[3],inactive
CC1=CC[C@H]2C[C@@H]1C2(C)C,AC50,[2],inconclusive: 0.0821 µM
O=c1[nH]cnc2c1ncn2[C@H]1CC[C@@H](CO)O1,AC50,[2],inconclusive: 25 µM
same,outcome,[10],inactive
Oc1ccc(Cl)cc1Cc1cc(Cl)ccc1O,AC50,[2],active: 16.8 µM
same,AC50,[6],active: 25 µM
same,AC50,[7],inconclusive: 6.48 µM
same,AC50,[5],inconclusive: 86.5 µM
O=C(c1ccccc1)C1CCCCC1,AC50,[2],inconclusive: 25 µM
same,outcome,[2],inactive
same,AC50,[9],inconclusive: 0.133 µM
same,AC50,[6],inconclusive: 25 µM
same,AC50,[7],inconclusive: 1.6 µM and inconclusive: 25 µM
same,AC50,[8],active: 0.527 µM
same,outcome,[8],inactive
O=C(O)c1ccccc1C(c1ccc(O)cc1)c1ccc(O)cc1,AC50,[2],inconclusive: 25 µM
same,AC50,[9],inconclusive: 0.217 µM
same,AC50,[6],inconclusive: 0.804 µM
same,AC50,[7],active: 7.92 µM and active: 7.1 µM
same,outcome,[7],inactive
same,AC50,[8],inconclusive: 50 µM and active: 1.95 µM
C=CCCCCCCCCC(=O)O,outcome,[2],inactive
same,AC50,[6],inconclusive: 25 µM
same,AC50,[7],inconclusive: 45.6 µM
Cc1cn([C@H]2C[C@H](N=[N+]=[N-])[C@@H](CO)O2)c(=O)[nH]c1=O,AC50,[2],inconclusive: 25 µM
same,outcome,[11],inactive
O=C(N[C@@H](c1ccccc1)[C@@H]1CCCCN1)c1cccc(C(F)(F)F)c1Cl,AC50,[2],inconclusive: 6.21 µM
same,AC50,[6],inconclusive: 5.84 µM
same,AC50,[3],active: 11.4 µM
O=C1CCC(C2CCCCC2)CC1,AC50,[2],inconclusive: 0.00229 µM
same,AC50,[6],inconclusive: 25 µM
same,AC50,[5],active: 33.1 µM and active: 50 µM
same,outcome,[5],inactive
OCC(CO)(CO)CO,outcome,[2],inactive
c1ccc(B(c2ccccc2)c2ccccc2)cc1,AC50,[2],inconclusive: 0.106 µM
same,AC50,[6],inconclusive: 25 µM
same,outcome,[7],inactive
CCCCC(CC)CCC(CC(C)C)OS(=O)(=O)O (stereo not given),AC50,[2],active: 2.49 µM
same,AC50,[6],active: 8.17 µM and active: 6.89 µM
same,AC50,[5],inconclusive: 50 µM
same,AC50,[3],inconclusive: 16.8 µM
C=C1C[C@H]2[C@@H]3C=C(C)C4=CC(=O)CC[C@]4(C)[C@H]3CC[C@]2(C)[C@@]1(OC(C)=O)C(C)=O,AC50,[2],active: 4.1 µM
same,AC50,[9],inconclusive: 15.8 µM
same,AC50,[7],active: 29.2 µM
O=C(c1ccc(OCCN2CCCCC2)cc1)c1c(-c2ccc(O)cc2)sc2cc(O)ccc12,AC50,[2],active: 1.7 µM and active: 3.59 µM and active: 1.46 µM
